The text below walks through data of paper PMC3814723.

The data set has as its system T1, AdpAgh-His6 (Streptomyces ghanaensis ATCC14672).
T1 sequence (looked up): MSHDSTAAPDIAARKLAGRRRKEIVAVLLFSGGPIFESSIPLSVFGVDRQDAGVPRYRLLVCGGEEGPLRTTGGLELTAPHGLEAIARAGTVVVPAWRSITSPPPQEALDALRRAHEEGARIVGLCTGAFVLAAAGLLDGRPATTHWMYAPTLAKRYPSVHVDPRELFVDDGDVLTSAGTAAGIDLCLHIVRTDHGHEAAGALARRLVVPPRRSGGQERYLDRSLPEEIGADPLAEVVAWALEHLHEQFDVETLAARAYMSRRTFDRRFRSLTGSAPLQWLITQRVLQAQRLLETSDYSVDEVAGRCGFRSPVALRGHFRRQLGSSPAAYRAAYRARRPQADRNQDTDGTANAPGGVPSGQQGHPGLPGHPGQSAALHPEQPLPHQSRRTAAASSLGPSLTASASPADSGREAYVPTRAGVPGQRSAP
As to the kind of experiment: EMSA. The note with it: poly(dI-dC), 20 mM Tris-HCl pH 8.0, 1 mM EDTA, 1 mM DTT, 100 mM KCl, 10 mM MgCl2, 10% glycerol, 1 ug poly(dI-dC), 15 ul, 25 C, 15 min, 20 fmol probe, AdpAgh 1.1-88, recombinant protein, residues 1-428, protein details: C-terminal His6, label: 5'-32P, probe letters rebuilt from the primers and the genome. A general note: A gel shift assay detects complexes by their altered migration in electrophoresis.

[1] abbreviates: more than one complex at increasing AdpAgh.

Tags and fusion partners may be left off the protein sequences shown.

As to “AAAGGTACCTCTGGACCCGCGCTATCTGACGGGTGTTCAGGCACAGGTCGTGATGGCGCACCAGGGCGATCCGCAGTTTGCGCTTGCGCCACAGCGGTATTCCCGACCGGGCCGGGGTCTCGGCCGGGGCGGAGCATCCGCCCGACGTCGCTCCCGCGGCGGGACCTGTGCTGATCACGGGCAATGTCTTCCGCATGCGATGTGCTCCTTCTGGGCCCTGCGGCTGATGTCTCGTGAAGTGGGGGTCTGCGGCGGTCCGGCCCCGCTACGGCCGGCGGCGGGCCCTTCGGACGGCGAGGTCCTCCAACTGCAGCAGGTAGAGCGCCAGGGGCTGCAGCCTGCTGACGCGCTGCGGGGCCCCGGGCCCCCGGCCGGCGGCCAGCAGCCGTTGCAGGAAGCGGTCGGGGCCGCGCCACCAGCCCGGTTCCACGACCGTCGCGTGGGCGAGGAACCGGAGCAGGTACGCCAGTCGGTGCGCGTCTAGATTT (double strand) [moeK5p]”, the binding result under setting [1] is given as “binds”.

“AAAGGTACCAGGCCATGGGCTCCGCTTCGAGCTTCCGAGCCTATCGGGGCCCCTCTGCCGCGTGACGGCGGGATGGGCCGATCTTGTCTTATTTTATTGGCGCCTGAGGGAGCATCAGCACCTGGAACGCGCCGTCAGCACGTACCGACAGCCTTGCGCGTGACGGTCGGCCGCGCATGCGGATTGACGGAATTTCACCGTCTGAACAGGACGCTCCACCCGTTCTCGTCACGGCGGCCCTCGGGGTCCGCCGTCATCCCCAGGTATGACACGGCCTCCCGGCGCTCCGCCGGAAGTCGCCCCCGGAACCGGAGCAGCGGTTGACTGCACGGCGGCAAACGGACGGAACGATGGTGCACGTCCCCGAGAACCTCTCCGAGAACTTCTCCGAGAACCTCTCCGAGAACCTCTCCGAGAACATGTCGTCCTGACAGGAGTGCCCATCCCGTGACCACCGCACCCACCGCCGACCGGACCACCGCCGTGGCCGCGCGCGCCACGGACCTGTCGAAGTCTAGATTT (double strand) [bldAghp]”: the binding result (three complexes, single band at high AdpAgh) is “binds”.

For “AAATCTAGAGCCGGCCGCGCGGCGGACCGTGACCCGCACCGCGGGGAAGCGGACCGCGTCCGGGTCCGGCCCCCCCTTCCCGGGCGACACCGGGTGCCACCGGACGGAGCGGGGGCGCACCGGTCGGCTGACCGGTTTCCGTGCACGCCCCCGTATCTTTTCAGCCAACTTCTGCTCCTCGTGCATCTCCTGCCGTAACCACCCCCCAACCCCCGTTCGACCTGCACGGAAAGGGTCACGGGGGTCCCGTGCACCCTATGGGGATTGGCCACTGCGACGAGGCGCACTTCCCTGCACGGCCCGCGAGTGCAACGCTTCGTGATCGAATGCTTCACGCCAAGTTGCCAAGTCGACAATGTGCCGGATGCCGAACTGGCCACCGGGGCACGGCGGGACGCAGTAGATTCGATCTTGACTGTCTTACGGCGGGGGACTCGTGCAGGACCGAGGGGAAACGTGCAGGAGCGACACAACCGAGGGGTACCTTT (double strand) [adpAghp]”, the binding result (intermediate complexes at 4.4 pmol, single band at saturation) is listed as “binds”.

As to “AAATCTAGAGCATAACCGCCGCACAAAGTCTCCCTACCCCACGGAAACGAACGCGTGTAGTATCGGCAACCGCCCTGCCGCACCCTGTCCTCGAGGCGGCCCGGTGGACCCGCTGTTCGTCTCTCCAGTGGAAGGGGAGTACGTGAACGACGCTTTTCGTCCGTCCGCCGGTGAATCCGCCGGACGGGCCCGCCGAAGGATTTCCGAGCACTTCCGCACTCCCTCGACCGCGGCGTGTGCCGGAACGGTCACGCAGTTCCCCGGGCGGGTCTGAAGGAAACCGCGCGACGGCGCCGGACCACGGCTTTCGCGCCGGCGCGGCACACCGGGAGGAACACTCCCGGCCGGCCGGGAACGGCCTCGGCGACCAGGGCGCCCCGCACCTCCATCCGAACGCGCGACACCTCATCCGGACGCGATCCGCACGTGCGACGCGGCCGGCACCCCGTCGCGTGACCCGACCGGACGACAAGCCGGACGGGTACCTTT (double strand) [moeO5p]”, the binding result under setting [1] was “binds”.

Turning to “AAATCTAGAAGGGCGCCACCAGCTGGAGCCCCATCCCCGCGGGGACCAGGAGGGCGAGCAGCGCCACGGCGGTCCGTTCACCGCGCAGGTAGCGGACAAACGTGGAGAGATGCCGCAACGGACTGTCTGCCAACGCGCCCCTCCCCCGTTCGCCCGGCGGCGAGCGGCCAGCATAAAGTCCTGTGCGCCTCCTTGTGAATGACGCCTCGTCAACGGCGGCCGGAGCACGCCCTTTCTGCGGGAATGCCGATAGCGGACGCCGCTCCGGGAGGGGGCGAAGCACACCATTGCTCGTGATTGACGCATGCTGTTAGACTCCCCACGTCTCTTGGTCCGGACATGCGTTTCTCAACGCCGAAAGCCTGGTCAACCGCACTTTCGGCACCGCACAGTCCCACGGCGTCCGAGCGGTCGCGCGAGTCGGCCCGGTCGAGCCAGAGGCAGCCACACGAACGTGCACCGCAATGCACCGCCTTGATCGGTACCTTT (double strand) [moeE5p]”, the binding result (one shifted band) is on record as “binds”.
